Results from paper PMC11096365, “Cryo-EM structures of the human Elongator complex at work” (Nature Communications, 2024).
Results are given in words; binding and its absence hold for the method and conditions named. Some entries that bind do so weakly or less than the wild type.

The chains behind the UniProt entries cited, without tags or fusion partners. Where a name states a change or a piece, a line headed by the entry shows the natural chain unless it says otherwise.
UniProt O95163: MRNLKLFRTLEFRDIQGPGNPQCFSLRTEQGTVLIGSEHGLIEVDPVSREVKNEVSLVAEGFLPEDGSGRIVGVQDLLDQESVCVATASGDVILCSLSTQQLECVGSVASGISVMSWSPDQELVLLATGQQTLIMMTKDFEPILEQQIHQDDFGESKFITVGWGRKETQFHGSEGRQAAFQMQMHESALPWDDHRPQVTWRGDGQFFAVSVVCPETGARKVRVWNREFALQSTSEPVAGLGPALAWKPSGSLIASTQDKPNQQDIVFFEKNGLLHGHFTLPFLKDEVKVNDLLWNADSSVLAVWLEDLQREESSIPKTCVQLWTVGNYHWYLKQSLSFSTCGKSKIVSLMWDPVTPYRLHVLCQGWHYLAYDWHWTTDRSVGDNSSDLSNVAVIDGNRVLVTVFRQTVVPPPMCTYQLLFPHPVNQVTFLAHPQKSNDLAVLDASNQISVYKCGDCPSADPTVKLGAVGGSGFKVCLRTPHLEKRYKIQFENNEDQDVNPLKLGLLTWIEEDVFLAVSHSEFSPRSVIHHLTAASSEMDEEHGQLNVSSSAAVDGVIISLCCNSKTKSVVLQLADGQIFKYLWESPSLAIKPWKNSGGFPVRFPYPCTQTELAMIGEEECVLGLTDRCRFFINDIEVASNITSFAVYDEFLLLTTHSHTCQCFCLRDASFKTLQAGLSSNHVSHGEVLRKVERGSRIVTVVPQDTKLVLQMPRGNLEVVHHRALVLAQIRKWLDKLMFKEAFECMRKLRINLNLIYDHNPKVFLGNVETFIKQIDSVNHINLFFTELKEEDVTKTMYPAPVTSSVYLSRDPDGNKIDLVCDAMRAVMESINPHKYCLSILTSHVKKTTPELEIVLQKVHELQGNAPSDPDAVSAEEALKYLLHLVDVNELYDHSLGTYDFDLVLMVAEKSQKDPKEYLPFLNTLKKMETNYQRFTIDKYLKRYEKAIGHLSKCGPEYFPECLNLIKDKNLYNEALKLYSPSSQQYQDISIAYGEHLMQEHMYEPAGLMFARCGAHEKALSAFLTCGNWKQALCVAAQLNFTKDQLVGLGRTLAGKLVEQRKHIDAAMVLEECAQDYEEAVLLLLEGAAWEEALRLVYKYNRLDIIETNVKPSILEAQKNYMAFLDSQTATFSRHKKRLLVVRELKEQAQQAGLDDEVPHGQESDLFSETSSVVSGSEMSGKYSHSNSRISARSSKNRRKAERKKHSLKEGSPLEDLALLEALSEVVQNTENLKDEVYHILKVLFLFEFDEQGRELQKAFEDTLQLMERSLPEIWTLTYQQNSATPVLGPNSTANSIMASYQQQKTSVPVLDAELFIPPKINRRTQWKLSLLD
UniProt Q6IA86: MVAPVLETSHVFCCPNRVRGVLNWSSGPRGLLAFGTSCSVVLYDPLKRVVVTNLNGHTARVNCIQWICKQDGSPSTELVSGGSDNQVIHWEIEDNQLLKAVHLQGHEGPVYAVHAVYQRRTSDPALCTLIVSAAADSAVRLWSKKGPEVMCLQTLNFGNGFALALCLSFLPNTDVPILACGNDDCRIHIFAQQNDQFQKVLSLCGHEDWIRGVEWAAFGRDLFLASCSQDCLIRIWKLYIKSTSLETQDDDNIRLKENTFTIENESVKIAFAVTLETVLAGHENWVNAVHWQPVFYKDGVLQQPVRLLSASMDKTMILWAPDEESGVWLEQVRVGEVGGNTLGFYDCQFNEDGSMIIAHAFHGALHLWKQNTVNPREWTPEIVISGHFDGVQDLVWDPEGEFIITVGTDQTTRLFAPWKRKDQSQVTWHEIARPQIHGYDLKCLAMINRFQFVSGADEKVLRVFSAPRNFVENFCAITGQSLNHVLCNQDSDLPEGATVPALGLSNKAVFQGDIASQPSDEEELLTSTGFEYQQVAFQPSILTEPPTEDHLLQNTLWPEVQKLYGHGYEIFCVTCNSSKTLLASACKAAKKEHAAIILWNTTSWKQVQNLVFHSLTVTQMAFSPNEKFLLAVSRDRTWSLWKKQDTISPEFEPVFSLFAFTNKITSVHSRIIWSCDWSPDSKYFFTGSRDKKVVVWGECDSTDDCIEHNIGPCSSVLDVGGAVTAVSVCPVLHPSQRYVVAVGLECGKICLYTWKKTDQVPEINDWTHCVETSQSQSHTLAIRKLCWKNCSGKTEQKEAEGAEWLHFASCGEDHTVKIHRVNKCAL
UniProt Q9H9T3: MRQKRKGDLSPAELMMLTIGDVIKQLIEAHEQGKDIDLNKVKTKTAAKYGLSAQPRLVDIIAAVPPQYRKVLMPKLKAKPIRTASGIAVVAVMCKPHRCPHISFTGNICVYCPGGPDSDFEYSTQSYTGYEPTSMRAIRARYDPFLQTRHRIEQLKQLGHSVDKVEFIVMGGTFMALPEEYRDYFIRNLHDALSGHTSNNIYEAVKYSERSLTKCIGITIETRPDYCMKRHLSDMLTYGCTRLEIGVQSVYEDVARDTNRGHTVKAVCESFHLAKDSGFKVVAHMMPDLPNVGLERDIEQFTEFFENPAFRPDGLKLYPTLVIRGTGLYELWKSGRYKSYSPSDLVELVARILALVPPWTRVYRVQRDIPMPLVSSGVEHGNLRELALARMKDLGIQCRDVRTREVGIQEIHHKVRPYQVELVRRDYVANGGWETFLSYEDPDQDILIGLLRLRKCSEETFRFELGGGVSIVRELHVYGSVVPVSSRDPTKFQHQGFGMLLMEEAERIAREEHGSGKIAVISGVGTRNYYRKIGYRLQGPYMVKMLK
UniProt Q7TT37: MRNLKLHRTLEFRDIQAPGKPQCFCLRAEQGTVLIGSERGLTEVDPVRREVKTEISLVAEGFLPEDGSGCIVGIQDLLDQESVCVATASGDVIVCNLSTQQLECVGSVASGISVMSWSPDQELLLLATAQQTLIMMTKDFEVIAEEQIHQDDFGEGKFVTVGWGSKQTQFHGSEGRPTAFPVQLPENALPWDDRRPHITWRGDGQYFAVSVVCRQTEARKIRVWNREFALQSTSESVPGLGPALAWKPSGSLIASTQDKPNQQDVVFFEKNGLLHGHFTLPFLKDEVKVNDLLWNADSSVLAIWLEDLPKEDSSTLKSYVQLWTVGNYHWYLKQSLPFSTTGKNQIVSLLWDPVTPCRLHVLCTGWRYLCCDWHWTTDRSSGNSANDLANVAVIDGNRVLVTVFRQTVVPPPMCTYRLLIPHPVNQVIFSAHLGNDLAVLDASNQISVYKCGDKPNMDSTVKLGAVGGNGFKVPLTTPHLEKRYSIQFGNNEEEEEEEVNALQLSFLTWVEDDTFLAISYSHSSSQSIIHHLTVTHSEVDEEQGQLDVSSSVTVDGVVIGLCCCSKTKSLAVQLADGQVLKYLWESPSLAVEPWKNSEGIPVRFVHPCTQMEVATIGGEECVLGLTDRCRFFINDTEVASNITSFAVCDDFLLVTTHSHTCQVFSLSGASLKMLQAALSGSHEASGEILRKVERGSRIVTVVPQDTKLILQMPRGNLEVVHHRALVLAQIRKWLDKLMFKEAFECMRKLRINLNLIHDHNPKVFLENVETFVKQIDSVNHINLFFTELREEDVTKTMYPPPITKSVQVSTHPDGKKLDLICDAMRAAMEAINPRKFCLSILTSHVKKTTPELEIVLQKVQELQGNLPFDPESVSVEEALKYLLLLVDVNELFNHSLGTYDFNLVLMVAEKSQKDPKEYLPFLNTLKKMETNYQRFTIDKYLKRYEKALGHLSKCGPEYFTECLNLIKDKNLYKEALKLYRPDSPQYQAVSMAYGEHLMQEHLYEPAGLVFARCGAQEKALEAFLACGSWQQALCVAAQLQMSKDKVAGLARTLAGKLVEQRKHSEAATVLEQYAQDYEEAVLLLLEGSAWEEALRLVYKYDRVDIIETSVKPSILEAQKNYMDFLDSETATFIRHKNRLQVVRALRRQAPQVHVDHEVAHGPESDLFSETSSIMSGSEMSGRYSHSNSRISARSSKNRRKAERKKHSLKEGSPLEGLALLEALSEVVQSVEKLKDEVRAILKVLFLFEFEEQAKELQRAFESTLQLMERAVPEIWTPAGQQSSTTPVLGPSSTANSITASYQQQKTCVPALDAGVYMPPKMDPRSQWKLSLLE
UniProt Q91WG4: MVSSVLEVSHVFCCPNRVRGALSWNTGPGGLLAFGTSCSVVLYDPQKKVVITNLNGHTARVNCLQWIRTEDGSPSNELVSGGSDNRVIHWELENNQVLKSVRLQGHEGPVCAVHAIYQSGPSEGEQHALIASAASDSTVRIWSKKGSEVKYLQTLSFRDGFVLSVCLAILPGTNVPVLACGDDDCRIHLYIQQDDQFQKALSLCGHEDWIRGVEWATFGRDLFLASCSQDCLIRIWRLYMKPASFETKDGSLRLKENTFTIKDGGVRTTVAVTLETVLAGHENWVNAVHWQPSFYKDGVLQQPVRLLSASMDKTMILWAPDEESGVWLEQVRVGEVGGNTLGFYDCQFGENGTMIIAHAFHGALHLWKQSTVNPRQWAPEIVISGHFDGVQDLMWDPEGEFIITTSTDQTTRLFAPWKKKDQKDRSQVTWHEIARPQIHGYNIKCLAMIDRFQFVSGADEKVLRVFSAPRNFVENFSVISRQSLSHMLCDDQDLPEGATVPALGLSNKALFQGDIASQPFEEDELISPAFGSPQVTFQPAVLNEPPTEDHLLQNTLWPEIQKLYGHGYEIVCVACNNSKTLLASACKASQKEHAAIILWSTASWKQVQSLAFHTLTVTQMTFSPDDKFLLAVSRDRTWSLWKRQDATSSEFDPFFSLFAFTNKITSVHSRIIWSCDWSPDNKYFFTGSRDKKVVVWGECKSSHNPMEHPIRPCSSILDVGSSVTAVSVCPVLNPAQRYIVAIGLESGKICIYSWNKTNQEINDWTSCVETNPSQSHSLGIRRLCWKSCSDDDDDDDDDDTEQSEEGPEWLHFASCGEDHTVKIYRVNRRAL
UniProt Q9CZX0: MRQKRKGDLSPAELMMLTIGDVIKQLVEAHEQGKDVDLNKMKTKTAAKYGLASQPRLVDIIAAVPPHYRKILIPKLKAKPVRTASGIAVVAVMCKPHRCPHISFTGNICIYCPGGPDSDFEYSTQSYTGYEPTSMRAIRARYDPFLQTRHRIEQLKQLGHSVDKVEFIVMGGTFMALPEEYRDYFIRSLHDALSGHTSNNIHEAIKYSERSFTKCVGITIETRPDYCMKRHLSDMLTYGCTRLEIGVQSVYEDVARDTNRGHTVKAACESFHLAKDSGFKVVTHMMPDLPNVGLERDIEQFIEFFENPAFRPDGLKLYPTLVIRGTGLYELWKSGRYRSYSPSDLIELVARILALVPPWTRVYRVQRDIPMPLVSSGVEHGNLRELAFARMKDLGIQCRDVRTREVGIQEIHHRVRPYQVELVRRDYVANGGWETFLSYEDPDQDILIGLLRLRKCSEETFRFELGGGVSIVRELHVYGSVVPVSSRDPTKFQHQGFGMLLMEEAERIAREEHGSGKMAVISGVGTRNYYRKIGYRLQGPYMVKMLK

Experiments:
[1] = molecular target: human ELP123 subcomplex (ELP1, ELP2, ELP3) (human) (UniProt O95163+Q6IA86+Q9H9T3); assay: cross-linking; photo-crosslinking mass spectrometry with sulfo-SDA on purified reconstituted Elongator; HsElongator 85 µg at 1.4 µM, MmElongator 60 µg at 5.0 µM; 1:500 and 1:1000 protein:crosslinker, 60 min at room temperature, UV 365 nm for 10 s; 3% FDR at the residue pair level; both purified
[2] = molecular target: mouse Elp123 subcomplex (Elp1, Elp2, Elp3) of the reconstituted mouse Elongator complex (mouse) (UniProt Q7TT37+Q91WG4+Q9CZX0); assay: as above

Row | binding [1] | binding [2] | Binder
1 | binds |  | human ELP456 subcomplex (ELP4, ELP5, ELP6) (complex, UniProt Q96EB1 1-424; Q8TE02 1-300; Q0PNE2 1-266) chain 1: MAAVATCGSVAASTGSAVATASKSNVTSFQRRGPRASVTNDSGPRLVSIAGTRPSVRNGQLLVSTGLPALDQLLGGGLAVGTVLLIEEDKYNIYSPLLFKYFLAEGIVNGHTLLVASAKEDPANILQELPAPLLDDKCKKEFDEDVYNHKTPESNIKMKIAWRYQLLPKMEIGPVSSSRFGHYYDASKRMPQELIEASNWHGFFLPEKISSTLKVEPCSLTPGYTKLLQFIQNIIYEEGFDGSNPQKKQRNILRIGIQNLGSPLWGDDICCAENGGNSHSLTKFLYVLRGLLRTSLSACIITMPTHLIQNKAIIARVTTLSDVVVGLESFIGSERETNPLYKDYHGLIHIRQIPRLNNLICDESDVKDLAFKLKRKLFTIERLHLPPDLSDTVSRSSKMDLAESAKRLGPGCGMMAGGKKHLDF chain 2: MLDSLLALGGLVLLRDSVEWEGRSLLKALVKKSALCGEQVHILGCEVSEEEFREGFDSDINNRLVYHDFFRDPLNWSKTEEAFPGGPLGALRAMCKRTDPVPVTIALDSLSWLLLRLPCTTLCQVLHAVSHQDSCPGDSSSVGKVSVLGLLHEELHGPGPVGALSSLAQTEVTLGGTMGQASAHILCRRPRQRPTDQTQWFSILPDFSLDLQEGPSVESQPYSDPHIPPVDPTTHLTFNLHLSKKEREARDSLILPFQFSSEKQQALLRPRPGQATSHIFYEPDAYDDLDQEDPDDDLDI chain 3: MFVELNNLLNTTPDRAEQGKLTLLCDAKTDGSFLVHHFLSFYLKANCKVCFVALIQSFSHYSIVGQKLGVSLTMARERGQLVFLEGLKSAVDVVFQAQKEPHPLQFLREANAGNLKPLFEFVREALKPVDSGEARWTYPVLLVDDLSVLLSLGMGAVAVLDFIHYCRATVCWELKGNMVVLVHDSGDAEDEENDILLNGLSHQSHLILRAEGLATGFCRDVHGQLRILWRRPSQPAVHRDQSFTYQYKIQDKSVSFFAKGMSPAVL
2 |  | binds | mouse Elp456 subcomplex (Elp4, Elp5, Elp6) of the reconstituted mouse Elongator complex (complex, UniProt Q9ER73 1-422; Q99L85 1-300; Q8BK75 1-266) chain 1: MAAADTCGAGTLSSRSVASEAGQGGTSSFQRKGKASGGPGGGPRLLSIAGTRPSVRNGQLLVSTGLPALDQLLGGGLAVGTLLLIEEDKYNIYSPLLFKYFMAEGIINGHTLLVASAKENPAKILQELPAPLLDDNSKKELEDVHSAKTPEPNVNMKIAWRYQLQPKMEVGPVSSSRFGHYYDLSKRIPWELLQSSKWHGFFLPEHISPDLKGESCFLSCGYMRLLEFIQKSVYAEGFDGANPQKKQKNILRIGIQNLGSPLWGDDICCKENCDNNHRLTKFLYILRGLLRSSLSACIITMPAHLVQNKSITTRVRNLSDTVVGLESFIGSERETNPLYKDYHGLIHIRKIPRLNNLTCDESDVKDLAFKLKRKLFTIERLHLPPDLSDTVGRSSKQDLAASTARLGAGCSSMAEGKKHLDF chain 2: MLDSLLAIGGLVLLRDSVEWEGRSLLKALIKKSALRGEQVHVLGCEVSEEEFREGFDSDVNSRLVYHDLFRDPLNWSKPGEAVPEGPLKALRSMCKRTDHGSVTIALDSLSWLLCHIPCVTLCQALHALSQQNGDPGDNSLVEQVRVLGLLHEELHGPGSMGALNTLAHTEVTLSGKVDQTSASILCRRPQQRATYQTWWFSVLPDFSLTLHEGLPLRSELHPDHHTTQVDPTAHLTFNLHLSKKEREARDSLTLPFQFSSEKQKALLHPVPSRTTGHIFYEPDAFDDVDPEDPDDDLDI chain 3: MFPELNNLLSTTPDKTEQGTLTLLCDAKTDGSFLVHHFLSFYLKANCKVCFVALVQSFSHYNIVGQKLGVSLTAARDRGQLVFLEGLKSSVEVLFHSQDEPHPLQFLREAGTGNLQSLYTFIQDTLKPADSEESPWKYPVLLVDNLSVLLSLGVGAVAVLDFMQYCRATVCCELKGNVVALVHDTEGATDEGNDTLLNGLSHQSHLILRAEGLATGFCKDVHGQLSILWRRPSRSTAQRAQSLTYQYKIQDKNVSFFAKGMSPAVL
